The record followed here is the supplement of paper PMC12578635.

Some of the results follow. No stated cut-off is given here; in the data, active = 150% or more and inactive = the rest. Repeats are few or missing, and single values can be far off.

The experiment deals with Staphylococcus aureus JE2-lux inside RAW 264.7 macrophages. Briefly: intracellular bacterial bioluminescence relative to DMSO vehicle; higher = higher intracellular bacterial metabolic activity. The following applies: 10 µM; treatment time 4 h; gentamicin 50 µg/ml.
In the case of `COc1ccc(C)cc1NC(=O)N1CCC(c2nnc(C(=O)Nc3cccc(F)c3)s2)CC1`, the intracellular bacterial bioluminescence was inactive: 112%. The value for `CCCCOc1ccc(C(=O)CSc2nc3c([nH]2)c(=O)n(C)c(=O)n3C)cc1` was inactive: 98.6%; that for `CCOC(=O)c1c(NC(=O)c2ccc(N(C)C)cc2)sc2c1CC(C)(C)NC2(C)C` was inactive: 89.5%; that for `COc1cccc(NC(=O)NNC(=O)c2ccc3c(c2)NC(=O)C(C)(C)O3)c1` was inactive: 119%. The value for `COc1ccccc1CNS(=O)(=O)c1cc(-c2ccno2)oc1C` was inactive: 57.8%; that for `Cc1ccc(Cc2cnc(NC(=O)C3Cc4ccc(C)cc4C(=O)O3)s2)cc1` (configuration not stated) was inactive: 101%; that for `C=CCNc1nnc(SCC(=O)Nc2ccccc2F)c2ccccc12` was inactive: 76.7%. The result for `O=C(O)CC1C(=O)NCCN1Cc1ccc2ccccc2c1` (configuration not stated) reads inactive: 85.6%; that for `COc1cccc2c(=O)cc(C)n(CC(=O)NCc3ccccc3)c12`, inactive: 25.9%; that for `N#Cc1ccccc1Cn1c(=O)n(CC(=O)NCc2ccccc2Cl)c(=O)c2sccc21`, inactive: 15.1%.

Consider `N#C/C(=C/c1ccc(O)c([N+](=O)[O-])c1)c1nc(-c2ccc([N+](=O)[O-])cc2)cs1`, for which the intracellular bacterial bioluminescence was inactive: 106%.

As to `COC(=O)c1ccc(CSc2nc(N)cc(=O)[nH]2)cc1`, the intracellular bacterial bioluminescence was inactive: 99.3%. The result for `CCOC(=O)Cc1csc(NC(=O)CSc2nnc3ccccn23)n1` reads inactive: 107%.

As to `Cc1[nH]c2ccccc2c1SCC(=O)Nc1ccc(F)cc1`, the intracellular bacterial bioluminescence is inactive: 83.8%. The result for `Cc1nc(N2CCC(C(=O)NCCc3ccc(S(N)(=O)=O)cc3)CC2)c2c(C)c(C)oc2n1` reads inactive: 122%; that for `CCOc1ccc(-c2nc3c(c(=O)[nH]2)Cc2cc(Cl)ccc2O3)cc1`, inactive: 115%. As to `CCOc1ccc(N2C(=O)c3ccccc3C2C(=O)NCCC(C)C)cc1` (configuration not stated), the intracellular bacterial bioluminescence is inactive: 82.8%.

Take `COc1ccc(-c2cnc(NC(=O)NC(C)C)n2C)cc1`: the intracellular bacterial bioluminescence is inactive: 120%.

With `CCOC(=O)c1ccccc1NC(=O)CSc1ccnc2c1c(=O)n(C)c(=O)n2C`, the intracellular bacterial bioluminescence is inactive: 123%. Take `Cc1nc2c3ccccc3n(CC(=O)Nc3ccc4c(c3)OCO4)c(=O)n2n1`: the intracellular bacterial bioluminescence is inactive: 108%. The value for `O=C1Oc2ccccc2C(=O)/C1=C/Nc1cccc(Cl)c1` was inactive: 70.1%. As to `Cc1cc(C)c2cc(C)c3nnc(SCC(=O)Nc4nnc(C)s4)n3c2c1`, the intracellular bacterial bioluminescence was inactive: 114%. The result for `COc1ccccc1-c1noc(-c2ccc[nH]c2=O)n1` reads inactive: 115%; that for `Cc1ccc2nc(NC(=O)c3ccc(-c4nc5ccccc5s4)s3)sc2c1`, inactive: 98.8%.

`CC(C)(CCl)C(=O)Nc1c(C(N)=O)oc2ccccc12`: the intracellular bacterial bioluminescence is inactive: 101%.

Turning to `COc1cccc(Nc2nc(NCc3ccc(C)cc3)nc3c2cnn3C)c1`, the intracellular bacterial bioluminescence was inactive: 122%. The value for `COc1ccc(OC)c(Nc2nc(NCc3ccco3)nc(N)c2[N+](=O)[O-])c1` was inactive: 45.6%. The result for `Cc1cc2nc(NC(=O)/C=C/c3cccc([N+](=O)[O-])c3)sc2cc1C` reads inactive: 134%; that for `O=C(O)/C=C\C(=O)NNC(=O)CSc1nc2ccccc2[nH]1`, inactive: 96.4%; that for `O=C(CSc1nc(=O)n2ccccc2n1)Nc1ccc2c(c1)OCO2`, inactive: 81.6%. The value for `CCOc1ccc2[nH]c(=O)c(CN(CCO)C(=O)Nc3ccc(C)cc3)cc2c1` was inactive: 70.2%; that for `Cc1cc(C)n2ncc(C(=O)N3CCN(c4ccccn4)CC3)c2n1` was inactive: 113%. As for `CCNS(=O)(=O)c1cc(-c2cc(C(=O)NC3CCCCC3)n[nH]2)ccc1OC`, the intracellular bacterial bioluminescence was inactive: 68.1%.

`Cc1ccc(-c2nc3ncccn3c2NC(=O)c2cc3ccccc3oc2=O)cc1`: the intracellular bacterial bioluminescence is inactive: 96.6%. The value for `Cc1cccc(C(=O)Nc2sc3c(c2C(N)=O)CC(C)CC3)c1` (configuration not stated) was inactive: 98.8%; that for `COc1ccccc1C(CNC(=O)c1cc(-c2ccccc2)on1)N1CCC(C)CC1` (configuration not stated) was inactive: 114%.

As to `CCOc1ccc(NC(=O)CC2SC(=N)NC2=O)c([N+](=O)[O-])c1` (configuration not stated), the intracellular bacterial bioluminescence is inactive: 118%. The value for `CCCc1cc(O)nc(SCC(=O)N2CCc3ccccc3C2)n1` was inactive: 92.3%; that for `CCCn1ncc(C)c1NC(=O)Cn1nc2n(C)c3ccccc3n2c1=O` was inactive: 57.5%; that for `COc1ccccc1CNC(=O)C(C)n1nc(-c2cc(C)oc2C)cc(N)c1=O` (configuration not stated) was inactive: 88.2%.

In the case of `COc1ccc(C(=O)c2sc3nc4c(cc3c2N)C(=O)CCC4)cc1`, the intracellular bacterial bioluminescence was inactive: 98.3%. The value for `CCNC(=S)NCCCNc1nc2c(C)cccc2cc1C#N` was inactive: 98.5%; that for `Cc1onc(-c2ccncc2)c1C(=O)N(C)Cc1nc2cc(Cl)ccc2[nH]1` was inactive: 124%; that for `COc1ccc(CCN2C(=O)C3N=NN(c4ccccc4)C3C2=O)cc1OC` (configuration not stated) was inactive: 82.1%. Take `COC(=O)c1c(NC(=O)CC2Sc3ccccc3NC2=O)sc(C)c1C` (configuration not stated): the intracellular bacterial bioluminescence is inactive: 108%. The result for `O=C(Nc1cccc(-c2ccc3nncn3n2)c1)c1ccc(Cl)nc1` reads inactive: 123%; that for `CC(CCc1ccccc1)NC(=O)C1CCCN(c2nccnc2Oc2ccccc2)C1` (configuration not stated), inactive: 47%. The value for `CCOc1ccc2cc(C#N)c(SCC(=O)NCCc3ccccc3)nc2c1` was inactive: 91.9%; that for `COc1ccc(NC(=O)N2CCC(c3nc4ccccc4o3)CC2)cc1` was inactive: 92.3%. Take `CCN(CCCNC(=O)c1c(-c2ccccc2)nnc2ccc(C)cc12)c1ccccc1`: the intracellular bacterial bioluminescence is inactive: 83.9%. The result for `CCc1ccc(CNC(=O)c2cc3c(=O)n(Cc4cccnc4)ccc3nc2C)cc1` reads inactive: 78%; that for `CCN(CC)S(=O)(=O)c1ccc2c3c(cccc13)C(=O)N2C(=O)c1ccncc1`, inactive: 113%; that for `CN1C(=O)N(CC(=O)NCc2ccccc2F)c2cccnc2N1C`, inactive: 102%. The result for `CC(C)CC(=O)N1CCC(c2nnc(C(=O)Nc3cccc(Cl)c3)s2)CC1` reads inactive: 89.9%; that for `Cc1ccc(S(=O)(=O)NCCNc2nc3c(C)cc(C)cc3cc2C#N)cc1`, inactive: 98%; that for `C#CCn1/c(=N/C(=O)COc2ccc(Cl)cc2Cl)sc2cc(S(N)(=O)=O)ccc21`, inactive: 77.1%.

As to `Cc1ccccc1Cn1cc(S(=O)(=O)c2ccc(F)cc2)c(=O)c2cc3c(cc21)OCO3`, the intracellular bacterial bioluminescence was inactive: 68.7%. The value for `Cc1ccc(C)c(S(=O)(=O)N2CCCC2CNC(=O)C(=O)NCc2cccnc2)c1` (configuration not stated) was inactive: 113%; that for `O=C(c1cc(-c2cccs2)on1)N(Cc1cccc(Cl)c1)C1CCS(=O)(=O)C1` (configuration not stated) was inactive: 85.7%; that for `CC(=O)c1c2c3c(cccc3[nH]c1=O)C(=O)c1ccccc1-2` was inactive: 125%.

In the case of `CCOC(=O)c1ccc(Oc2ncnc3sc4c(c23)CCCCC4)cc1`, the intracellular bacterial bioluminescence is inactive: 52.9%. In the case of `Cc1ccc2ncc(NC(=O)N3CCn4cnnc4C3)c(O)c2c1`, the intracellular bacterial bioluminescence is inactive: 120%. Take `O=C(O)c1nc(N2CCCCC2)c2c(-c3ccccc3F)noc2n1`: the intracellular bacterial bioluminescence was inactive: 106%. The result for `COc1cc(C(=O)Nc2nc3c(ccc4ccccc43)s2)cc(OC)c1OC` reads inactive: 71.3%; that for `O=C(Nc1nc2c(s1)CCC2)c1cccc(NS(=O)(=O)c2ccc(F)cc2)c1`, inactive: 109%; that for `Cc1ccc(C(=O)c2sc3nc(C)c(C)c(C)c3c2N)cc1`, inactive: 78%. The result for `CCOC(=O)CC(NC(=O)NCc1ccnc(N2CCSCC2)c1)c1ccccc1` (configuration not stated) reads inactive: 59.9%; that for `COc1cc(Cl)c(NS(=O)(=O)c2cc(-c3cc(C)no3)cs2)c(OC)c1`, inactive: 81%. `O=C1COc2ccc(S(=O)(=O)N3CCC(NC(=O)C4CCCC4)CC3)cc2N1`: the intracellular bacterial bioluminescence was inactive: 126%. The result for `Cc1nnc(NC(=O)c2ccccc2C(F)(F)F)s1` reads inactive: 97.8%; that for `Brc1ccc(-c2csc3ncnc(N4CCCCC4)c23)cc1`, inactive: 85.2%. The value for `CCOC(=O)c1ccccc1Nc1nc(C)nc2c1CCC2` was inactive: 94.5%. Regarding `O=c1cc(CO)oc(C(Nc2ccccn2)c2cccc(F)c2)c1O` (configuration not stated), the intracellular bacterial bioluminescence is inactive: 95.5%. The value for `COc1cccc2sc(NC(=O)c3ccc(N4C(=O)CCC4=O)cc3)nc12` was inactive: 66.3%. The value for `NC(=O)c1c(NC(=O)C2=COCCO2)sc2c1CCCCC2` was inactive: 69.7%; that for `COc1cc2cc(C#N)c(SCC(=O)NCc3ccco3)nc2cc1OC` was inactive: 99.4%. The result for `Cn1c(=O)c2c(nc(SCCN3CCCCC3)n2Cc2ccc(Cl)cc2)n(C)c1=O` reads inactive: 80.9%; that for `CS(=O)(=O)c1cc([N+](=O)[O-])c(Sc2nc3ccccc3o2)c([N+](=O)[O-])c1`, inactive: 53.5%.

Turning to `CCc1ccc(NC(=O)CCc2nc(-c3nn(-c4ccc(Cl)cc4)c(=O)n(C)c3=O)no2)cc1`, the intracellular bacterial bioluminescence is inactive: 42.1%. The value for `COc1ccc(-c2cnc3c(-c4ccccc4)c(C)nn3c2N)cc1OC` was inactive: 94.3%; that for `COc1ccc(OC)c(NC(=O)C2=C(C)NC(=S)NC2c2ccc(C(C)C)cc2)c1` (configuration not stated) was inactive: 49.3%; that for `O=C1Nc2ccc(Br)cc2/C1=C1/SC(=S)N(C(Cc2ccccc2)C(=O)O)C1=O` (configuration not stated) was inactive: 75.2%.

With `O=C(CN1C(=O)c2ccccc2S1(=O)=O)Nc1ccon1`, the intracellular bacterial bioluminescence is inactive: 89.6%. Regarding `CCc1cccc(C)c1NC(=O)CSc1nnc(-c2ccncc2)o1`, the intracellular bacterial bioluminescence was inactive: 102%. The value for `CCOC(=O)c1ccc2c(c1)s/c(=N/C(=O)c1cccc(S(=O)(=O)CC)c1)n2CC` was inactive: 113%; that for `Cc1ccc2sc(N(CCCn3ccnc3)C(=O)c3ccco3)nc2c1C` was inactive: 94.5%.

Consider `Cn1c2ccc(F)cc2c2nnc(SCC(=O)NC3CCCCC3)nc21`, for which the intracellular bacterial bioluminescence was inactive: 101%. For the molecule `O=c1c(SCc2ccc(Cl)cc2)nccn1-c1ccc(F)cc1`, the intracellular bacterial bioluminescence is inactive: 102%.

For `O=C(NCCc1nc2cccnc2n1C1CCCC1)NCc1ccco1`, the intracellular bacterial bioluminescence is inactive: 86.1%. For `CCN(CC)C(=O)c1cnc2ccc(Cl)cc2c1O`, the intracellular bacterial bioluminescence is inactive: 130%. The value for `COc1cccc(-n2c(=O)[nH]c3c(C(N)=O)nc(-c4ccccc4Cl)nc32)c1` was inactive: 71.9%. On to `CCOc1ccc(-n2c(C)c(C)c3c2ncn2ncnc32)cc1`, for which the intracellular bacterial bioluminescence was inactive: 93.2%.
